# Laboratory results as given in paper PMC9248843, “Structural and biophysical studies of new L-asparaginase variants: lessons from random mutagenesis of the prototypic Escherichia coli Ntn-amidohydrolase” (Acta Crystallographica. Section D, Structural Biology, 2022).
# Results are given in words; binding and its absence hold for the method and conditions named. Some results given as binding are weak or reduced against the parent protein; the word gives no strength.
# T1: EcAIII α subunit (∼20 kDa) (Escherichia coli, UniProt P37595 1-178)
# T1 construct: EcAIII of Escherichia coli, α subunit: cut product of the precursor up to the scissile bond Gly178-Thr179; the linker is partly degraded, residues 158-178 are not visible in the structures; also called subunit α; source: E. coli BL21 Gold, purified (DEAE-Sepharose, SEC); formed by autocleavage of the precursor
# T1 sequence (looked up): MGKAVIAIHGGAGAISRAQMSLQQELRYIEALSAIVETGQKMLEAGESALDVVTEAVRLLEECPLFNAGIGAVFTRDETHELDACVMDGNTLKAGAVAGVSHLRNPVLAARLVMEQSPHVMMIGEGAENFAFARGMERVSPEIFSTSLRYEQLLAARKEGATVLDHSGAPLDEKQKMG
# B1: EcAIII β subunit of variant RDM1-8 (domain or fragment, UniProt P37595 179-321)
# chain: TVGAVALDLDGNLAAATSTGGMTNKLPYQVGPTPLVGAGCYANNASVAVSCTGTGEVFIRALAAYDIAALMDYGGLSLAEACERVVMEKLPALGGSGGLIAIDHEGNVALPFNTEGMYRAWGYAGDTPTTGIYREKGDTVATQ
# B2: EcAIII variant RDM1-8, mature (processed into α/β subunits) (complex, UniProt P37595 1-178; P37595 179-321)
# chain 1: T1 sequence (looked up)
# chain 2: B1 chain
# Experiments:
# [1] = target: T1, EcAIII α subunit (∼20 kDa); assay: crystal structure; hanging-drop vapor diffusion at 20°C; 20–30% PEG 4000 or PEG 6000, 0.2 M MgCl2, 100 mM Tris–HCl pH 8.5; protein 10–15 mg/ml; space group P212121; both purified
# [2] = target: EcAIII variant RDM1-8, mature (processed into α/β subunits) (Escherichia coli) (UniProt P37595); assay: as above
Binder,binding [1],binding [2]
B1,binds,–
B2,–,binds
